Experimental data: publication PMC4281712, “ATPase-dependent auto-phosphorylation of the open condensin hinge diminishes DNA binding” (Open Biology, 2014)
Changes are numbered by the printed parent chain. Names and notes keep the numbering of the source. These are yes or no findings as the source states them, for the method shown. Some entries that bind do so weakly or less than the wild type. For some of these results: Where a sequence is shown, tags or fusion partners need not be part of it.

T1: Cnd2 tagged with HA and six-histidine (S. pombe) (UniProt Q9Y7R3)
T1 sequence: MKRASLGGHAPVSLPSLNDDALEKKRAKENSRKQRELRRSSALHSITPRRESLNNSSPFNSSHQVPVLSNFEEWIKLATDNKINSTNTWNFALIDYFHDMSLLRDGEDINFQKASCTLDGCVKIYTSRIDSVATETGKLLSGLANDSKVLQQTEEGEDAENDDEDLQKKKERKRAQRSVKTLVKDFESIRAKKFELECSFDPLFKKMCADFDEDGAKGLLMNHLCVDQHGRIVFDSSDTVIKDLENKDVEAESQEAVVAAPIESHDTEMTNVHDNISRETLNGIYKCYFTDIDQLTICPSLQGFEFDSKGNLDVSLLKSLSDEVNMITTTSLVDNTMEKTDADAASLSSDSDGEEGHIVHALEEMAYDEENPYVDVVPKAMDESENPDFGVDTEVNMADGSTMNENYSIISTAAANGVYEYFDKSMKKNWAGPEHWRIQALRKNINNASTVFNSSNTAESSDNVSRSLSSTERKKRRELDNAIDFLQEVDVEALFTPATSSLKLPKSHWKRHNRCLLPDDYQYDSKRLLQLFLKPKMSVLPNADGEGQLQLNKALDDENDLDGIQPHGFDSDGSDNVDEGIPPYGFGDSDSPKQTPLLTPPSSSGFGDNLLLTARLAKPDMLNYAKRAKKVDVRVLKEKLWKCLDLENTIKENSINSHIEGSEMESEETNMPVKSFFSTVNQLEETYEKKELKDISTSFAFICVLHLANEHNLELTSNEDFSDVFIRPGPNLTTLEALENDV

T2: Cut14/SMC2 tagged with 3HA-His6 (wild type) (S. pombe) (UniProt P41003)
T2 sequence: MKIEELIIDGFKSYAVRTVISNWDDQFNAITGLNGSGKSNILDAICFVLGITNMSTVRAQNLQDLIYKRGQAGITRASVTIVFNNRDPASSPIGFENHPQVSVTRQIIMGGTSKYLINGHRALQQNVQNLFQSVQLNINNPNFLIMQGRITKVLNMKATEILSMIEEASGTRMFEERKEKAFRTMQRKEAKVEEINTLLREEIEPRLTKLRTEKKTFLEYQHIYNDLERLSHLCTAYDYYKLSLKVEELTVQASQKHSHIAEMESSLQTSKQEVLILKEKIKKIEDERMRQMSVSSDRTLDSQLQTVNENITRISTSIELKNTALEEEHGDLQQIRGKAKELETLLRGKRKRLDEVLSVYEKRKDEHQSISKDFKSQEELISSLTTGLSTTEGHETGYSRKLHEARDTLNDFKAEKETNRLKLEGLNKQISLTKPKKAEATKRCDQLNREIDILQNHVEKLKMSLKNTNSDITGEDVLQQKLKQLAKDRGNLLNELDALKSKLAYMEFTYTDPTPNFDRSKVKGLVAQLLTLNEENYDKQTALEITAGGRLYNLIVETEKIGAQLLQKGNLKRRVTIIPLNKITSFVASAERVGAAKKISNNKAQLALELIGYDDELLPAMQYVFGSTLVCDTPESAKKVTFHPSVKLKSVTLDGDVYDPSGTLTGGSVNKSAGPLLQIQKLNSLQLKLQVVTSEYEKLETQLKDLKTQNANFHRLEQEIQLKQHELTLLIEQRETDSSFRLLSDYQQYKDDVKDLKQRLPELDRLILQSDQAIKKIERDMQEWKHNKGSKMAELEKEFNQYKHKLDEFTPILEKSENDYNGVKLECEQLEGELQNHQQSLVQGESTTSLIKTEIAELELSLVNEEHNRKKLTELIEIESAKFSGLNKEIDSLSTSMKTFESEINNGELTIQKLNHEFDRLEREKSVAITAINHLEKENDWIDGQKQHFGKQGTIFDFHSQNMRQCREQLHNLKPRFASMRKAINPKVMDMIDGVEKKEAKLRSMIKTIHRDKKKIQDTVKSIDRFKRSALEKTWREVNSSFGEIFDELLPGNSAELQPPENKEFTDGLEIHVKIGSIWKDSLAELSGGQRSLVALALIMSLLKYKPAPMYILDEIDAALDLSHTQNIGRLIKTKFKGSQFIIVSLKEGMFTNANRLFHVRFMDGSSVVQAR

T3: Cut14 K38T (S. pombe) (UniProt P41003)
T3 sequence: T2 sequence with K38T

B1: Cut3/SMC4 (wild type) (protein, UniProt P41004 1-1324)
chain: MSDKGIFRTSSTPSIVDVTPDRGERPRKLVRSVLESPSQKDVASIVKIEQTPSRPFFNDFLKKRITDSLNERPNLLNKFMSAQDGTPSKSTGFNERSSQLVSEFTTTEDIENCEETTQVLPPRLVVYELRLTNFKSYAGTQIVGPFHPSFSSIVGPNGSGKSNVIDALLFVFGFRASKLRQSKASALIHKSATHPSLDSCDVEITFKEVNSDFTYVDGSELTVRRTAYKNNTSKYFVNGVESSFSAVSNLLKEKGIDLNHKRFLILQGEVESIAQMKPRAISEGDDGLLEYLEDIIGTSKYKPIIEENMQELSNSDDICAEKESRLKLVLSEKAKLEDSKNSVLSFLKDENELFMKQNQLYRTILYETRNKKTLVQNLLNSLEGKLQAHLEKFEQTERDISEKNEEVKSLREKAAKVKNDCTSEKKTRQSYEQQTVKIEEQLKFLLNKEKKLKKSIEALSFEKSEAENSLSSHDIDSQKLNSEIADLSLRLQQEELSLDDIRKSLQGKTEGISNAIEEKQKAMAPALEKINQLTSEKQILQVELDMLLNKENDLINDVESSQSSLDKLRNDAEENRNILSSKLKVLSDLKGEKKDVSKNIERKKETVHNTYRNLMSNRTKLEEMKASLSSSRSRGNVLESLQRLHESDNLNGFFGRLGDLATIDEAYDVAISTACPALNHIVVDNIETGQKCVAFLRSNNLGRASFIILKELAQKNLARIQTPENVPRLFDLLRFNDQKFAPAFYNVLQNTLVAKNLEQANRIAYGKTRWRVVTLSGQLIDKSGTMTGGGTRVKKGGMSSAITSDVSPASVETCDKQVQLEDTRYRQHLSELESLNQRFTEISERIPSAELEISKLQLDVSACDRLVAGEERRILQLKSDLKSIRNNNERKRNLQNKISNMDKEVEAININNEGLVTEIKTLQDKIMEIGGIRYRIQKSKVDDLHEQLKFVKDKLNKMSFKKKKNEQRSQSFQVELSNLTSEYDTTTESIATLKTELQSLNKYVDEHKSRLREFENALWDINSSIDELVKFIEFESKQMNSVKAERIELENQIQEQRTALSEVGNNENKYLKLMSNLKLHNLTEFCDQTTMDSTFPEYSEDELSSVDKSELVSNISVLKKKTEDREVDINVLSEYRRCNKEAEKRDSDYQSELQKRTDLKKVVTDLQSQRLDEFMYGFGIISMKLKEMYQIITMGGNAELELVDSLDPFSEGVLFSVMPPKKSWKNISNLSGGEKTLSSLALVFALHNYKPTPLYVMDEIDAALDFKNVSIVANYIKERTKNAQFIVISLRSNMFELSSRLVGIYKTANMTKSVTINNKEILTD
B2: Cut3 K161I (protein, UniProt P41004 1-1324)
chain: B1 chain with K161I
B3: Cut14/SMC2 in holocondensin (protein, UniProt P41003 1-1172)
chain: T2 sequence

Key:
[1] = target: T1, Cnd2 tagged with HA and six-histidine (S. pombe); test: co-purification by affinity chromatography; heteropentameric holocondensin: cut3+, cut14+, cnd1+, cnd2+ and cnd3+ overproduced together in S. pombe; affinity purification through HA- and His6-tagged Cnd2 (methods; the results say tagged Cut14); Cut3 and Cut14 bands seen by SDS-PAGE, autoradiography and CBB stain
[2] = target: T2, Cut14/SMC2 tagged with 3HA-His6 (wild type) (S. pombe); test: co-purification by Ni affinity chromatography; Cut3 (wild type, mutant or truncated) and His6-tagged Cut14 overproduced together in S. pombe; complex isolated on Ni-beads through the polyhistidine tag; bands seen by SDS-PAGE with CBB or Ponceau S stain
Cut14 K38T (S. pombe) = target: T3, Cut14 K38T (S. pombe); test: as above

Binder	binding [1]	binding [2]	binding (Cut14 K38T (S. pombe))
B1	binds	binds	–
B2	–	–	binds
B3	binds	–	–
